Source: patent publication US20250195464A1, “ALOTAKETAL COMPOUNDS AND DERIVATIVES THEREOF FOR USE AS ANTIVIRAL AGENTS” (priority 2022, published 2025)
At least one structure is not confirmed: it was looked up by name or label, or the drawing left a doubt.

Tested on: mNG-SARS-CoV-2
Format: cell-based
Settings: Huh7.5.1 cells pretreated 3 hours with serial dilutions

## CCC(CC)COC(=O)[C@H](C)N[P@](=O)(OC[C@H]1O[C@@](C#N)(c2ccc3c(N)ncnn23)[C@H](O)[C@@H]1O)Oc1ccccc1 [Remdesivir]
  reduction of mNG-SARS-CoV-2 infection: dose-dependent reduction
